Earlier results as cited in patent US12622967B2, “Molecules, formulations, and methods for nutritional support of athletes, patients, and others” (Today, Inc., priority 2022, dated 2026).
For some assays here: For at least one compound, name, drawing or mass did not settle the structure. Some results were stated once for a whole list of compounds, not compound by compound.

Experiments:
[1] = high intensity exercise
[2] = pyruvate infusion, porcine models (Sharma, Knott et al. 2005)

Row | Structure (SMILES) | time to be oxidized to energy [1] [min] | effect on systemic LPR [2]
1 | OC[C@H]1O[C@@](CO)(O[C@H]2O[C@H](CO)[C@@H](O)[C@H](O)[C@H]2O)[C@@H](O)[C@@H]1O [sucrose] | 20 to 30 | –
2 | CC(=O)C(=O)O [pyruvate] | – | reduces the systemic LPR
